Source: patent US8673908B2, “Kynurenine production inhibitor” (Kyowa Hakko Kirin Co., Ltd., priority 2008, dated 2014)
Some entries share one result that the patent states for a list of compounds.

Test system: kynurenine production in IFN-γ-treated KATO-III cells
Test: Inhibitory activity on kynurenine production (Test Example 1)
Format: cell-based, human
Conditions: IFN-γ treatment, culture for 96 hours, read-out: IC50 value, inhibition of kynurenine production
Experimental: This assay was performed according to a method modified from the method described in the Journal of Biological Chemistry (J. Biol. Chem.), vol. 263, pp. 2041-2048 (1988). Culture of KATO-III derived from human gastric cancer cells was performed by use of RPMI 1640 (GIBCO, 11875) supplemented with 10 vol % FBS (GIBCO, 10091-148, lot. 665285). 1 μL of a DMSO solution of the test substance was diluted with 199 μL of the culture medium, and the diluted solution was added to wells of a 384 well plate (10 μL/well). Then, IFN-γ (Sigma, 1-3265) was added to the culture medium so that the concentration of IFN-γ was 31.25 ng/mL, and the KATO-III cells were suspended at 50,000 cells/ml, in the culture medium. 40 μL of the suspension was added to each well (2,000 cells/well), and culture of the KATO-III cells was performed at 37° C. under a 5% CO2 atmosphere for 96 hours. The final concentration of DMSO was limited to 0.1 vol % or less so that DMSO itself might not affect the kynurenine concentration measured by this assay. After the culture, 10 μL of a 30 w/v % aqueous trichloroacetic acid solution was added to each well, and incubation was performed at 65° C. for 30 minutes. The plate was centrifuged at 2,500×g for 5 minutes, and then 15 μL of the supernatant in each well was transferred into another 384 well plate. To each of the transferred supernatants, 15 μL of a 2 w/v % solution of p-dimethylaminobenzaldehyde in acetic acid was added, incubation was performed at 65° C. for 20 minutes, and then the absorbance at 480 nm was measured.
[formula] Sample: the absorbance value of the well to which a DMSO solution containing the test substance was added and in which cells were treated with IFN-γ. Blank: the absorbance value of the well to which only DMSO, not the test substance was added and in which cells were treated with IFN-γ. Control: the absorbance value of the well to which only DMSO, not the test substance was added and in which cells were not treated with IFN-γ.
In this assay, expression of IDO in KATO-III cells is induced by IFN-γ treatment and then kynurenine in the culture medium is quantified. It is known that the kynurenine concentration in a culture medium increases in proportion to the enzymatic activity of intracellular IDO (for example, the Journal of Biological Chemistry (J. Biol. Chem.), vol. 263, pp. 2041-2048 (1988)). […] It is known that kynurenine production is inhibited by IDO inhibitors (for example, the Journal of Clinical Investigation (J. Clin. Invest.), vol. 117, No. 5, pp. 1147-1154 […]), and thus it is expected that Compound (I) also has an inhibitory effect on IDO.

Row | SMILES | IC50 [nM]
1 | Cn1cc(C(Oc2nc3ccccc3nc2NS(=O)(=O)c2ccccc2Cl)C(F)(F)F)ccc1=O (stereo not shown) [Compound 55, 2-chloro-N-{3-[2,2,2-trifluoro-1-(1-methyl-2(1H)pyridon-5-yl)ethoxy]quinoxalin-2-yl}benzenesulfonamide] | < 1000
2 | O=S(=O)(Nc1nc2ccccc2nc1OC(c1ccc(CN2CCOCC2)cc1)C(F)(F)F)c1ccccc1Cl (stereo not shown) [Compound 77, 2-chloro-N-{3-{2,2,2-trifluoro-1-[4-(morpholin-1-yl)methyl-phenyl]ethoxy}quinoxalin-2-yl}benzenesulfonamide] | < 1000
3 | O=S1(=O)CCC(C(Oc2nc3ccccc3nc2NS(=O)(=O)c2ccccc2Cl)C(F)(F)F)CC1 (stereo not shown) [Compound 268, 2-chloro-N-{3-[2,2,2-trifluoro-1-(tetrahydro-2H-thiopyran-1,1-dioxide-4-yl)ethoxy]quinoxalin-2-yl}benzenesulfonamide] | < 1000
4 | O=S(=O)(Nc1nc2ccccc2nc1OC(C1CC[S+]([O-])CC1)C(F)(F)F)c1ccccc1Cl (stereo not shown) [Compound 269, 2-chloro-N-{3-[2,2,2-trifluoro-1-(tetrahydro-2H-thiopyran-1-oxide-4-yl)ethoxy]quinoxalin-2-yl}benzenesulfonamide] | < 1000
5 | CCCS(=O)(=O)Nc1nc2ccccc2nc1OC(c1ccc(=O)n(C)c1)C(F)(F)F (stereo not shown) [Compound 271, N-{3-[2,2,2-trifluoro-1-(1-methyl-2(1H)pyridon-5-yl)-ethoxy]quinoxalin-2-yl}propane-1-sulfonamide] | < 1000
6 | CCCS(=O)(=O)Nc1nc2ccccc2nc1OC(C1CCS(=O)(=O)CC1)C(F)(F)F (stereo not shown) [Compound 275, N-{3-[2,2,2-trifluoro-1-(tetrahydro-2H-thiopyran-1,1-dioxide-4-yl)ethoxy]quinoxalin-2-yl}propane-1-sulfonamide] | < 1000
7 | O=S(=O)(Nc1nc2ccccc2nc1O[C@@H](c1ccccc1)C(F)(F)F)c1ccccc1Cl [Compound 310, (S)-2-chloro-N-3-{(2,2,2-trifluoro-1-phenylethoxy)-quinoxalin-2-yl}benzenesulfonamide] | < 1000
8 | O=S(=O)(Nc1nc2ccccc2nc1O[C@H](c1ccccc1)C(F)(F)F)c1ccccc1Cl [Compound 311, (R)-2-chloro-N-3-{(2,2,2-trifluoro-1-phenylethoxy)-quinoxalin-2-yl}benzenesulfonamide] | < 1000
9 | Cc1ncc(C(Oc2nc3ccccc3nc2NS(=O)(=O)c2ccccc2Cl)C(F)(F)F)s1 (stereo not shown) [Compound 316, 2-chloro-N-3-{[2,2,2-trifluoro-1-(2-methylthiazol-5-yl)-ethoxy]quinoxalin-2-yl}benzenesulfonamide] | < 1000
10 | Cn1ccc(C(Oc2nc3ccccc3nc2NS(=O)(=O)c2ccccc2Cl)C(F)(F)F)cc1=O (stereo not shown) [Compound 318, 2-chloro-N-{3-[2,2,2-trifluoro-1-(1-methyl-2(1H)pyridon-4-yl)ethoxy]quinoxalin-2-yl}benzenesulfonamide] | < 1000
11 | CN1CCC(C(Oc2nc3ccccc3nc2NS(=O)(=O)c2ccccc2Cl)C(F)(F)F)CC1 (stereo not shown) [Compound 325, 2-chloro-N-3-{[2,2,2-trifluoro-1-(1-methylpiperidin-4-yl)-ethoxy]quinoxalin-2-yl}benzenesulfonamide] | < 1000
12 | CCCS(=O)(=O)Nc1nc2ccccc2nc1OC(c1ccn(C)c(=O)c1)C(F)(F)F (stereo not shown) [Compound 333, N-{3-[2,2,2-trifluoro-1-(1-methyl-2(1H)pyridon-4-yl)-ethoxy]quinoxalin-2-yl}propane-1-sulfonamide] | < 1000
13 | O=S(=O)(Nc1nc2ccccc2nc1OC(c1cncc(F)c1)C(F)(F)F)c1ccccc1Cl (stereo not shown) [Compound 339, 2-chloro-N-3-{[2,2,2-trifluoro-1-(5-fluoropyridin-3-yl)-ethoxy]quinoxalin-2-yl}benzenesulfonamide] | < 1000
